Data on three molecules can be found in article PMC12463876, “AI-assisted design of ligands for lipocalin-2” (Frontiers in Immunology, 2025).

These are yes or no findings as the source states them, for the method shown.

Among the targets are MinP-3; MinP-2; MinP-1.
Test in all cases: dynamic light scattering; Prometheus Panta (NanoTemper), PBS (20 mM sodium phosphate, 150 mM NaCl, pH 7.4), triplicate; 0.32, 0.22, 0.18, 0.10 and 0.2 mg/mL for MinP-1 to MinP-5; both purified

B1: MinP-3 (designed binder)
chain: MKRVEIKALDNVENANAIAEVLKSHGIPVEVKEVSPDLKEVTSEAVVSEELAEKIKESLIELAKKLGPVGPIHISISDV
With B1, in the test with MinP-3, the binding entry is “no binding (tested: ~10–12 µM)”.

B2: MinP-2 (designed binder)
chain: MSKATVYDVSTGKTYEVSLEDAKKLASYAVYEGGYPLRISVAPEDTKAILDAIKNTSKEKAEEGKKLLEELN
notes: de novo miniprotein (RFdiffusion, ProteinMPNN) designed against LCN2; Cloned into pET30b with a Twin-Strep tag; also called MiniP-2; source: E. coli BL21 (DE3) pLysS, purified (Strep-Tactin XT magnetic beads, dialysis)
For the molecule B2, the binding entry with MinP-2 is listed as “no binding (tested: ~10–12 µM)”.

B3: MinP-1 (designed binder)
chain: KKKVAVVVVRKTPEEAKAGFEEAKPNVELVASILSEDFEVETLAVTEEEYDEVLEKYDFVVRVYKMDLESAKISAKLIREHIKEIVK
Regarding B3, in the test with MinP-1, the binding result was “no binding (tested: ~10–12 µM)”.
